Results are given in words; binding and its absence hold for the method and conditions named. In cells and extracts the contact can be indirect. These calls come from enrichment with a bait or labelling near it, and not all partners need be listed. Tags and fused reporters may be left off the sequences shown.
Target: T1, Flag-tagged LGSN (lengsin, lens protein with glutamine synthetase domain) (human) (UniProt Q5TDP6)
T1 sequence: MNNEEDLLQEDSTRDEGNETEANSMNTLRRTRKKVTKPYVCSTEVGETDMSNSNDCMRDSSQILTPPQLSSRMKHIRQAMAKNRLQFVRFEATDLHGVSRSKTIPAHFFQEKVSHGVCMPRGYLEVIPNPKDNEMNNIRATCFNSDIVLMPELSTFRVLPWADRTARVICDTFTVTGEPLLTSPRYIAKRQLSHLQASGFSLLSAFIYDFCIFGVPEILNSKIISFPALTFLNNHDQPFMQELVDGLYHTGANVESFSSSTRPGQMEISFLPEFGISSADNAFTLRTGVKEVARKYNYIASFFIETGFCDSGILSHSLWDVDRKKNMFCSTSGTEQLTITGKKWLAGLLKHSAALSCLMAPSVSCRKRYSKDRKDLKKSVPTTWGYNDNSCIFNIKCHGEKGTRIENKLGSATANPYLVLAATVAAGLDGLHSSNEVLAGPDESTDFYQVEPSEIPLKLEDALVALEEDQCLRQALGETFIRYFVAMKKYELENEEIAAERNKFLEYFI
Assay: affinity purification with mass spectrometry; Flag immunoprecipitation from LGSN-overexpressing GES-1 cell lysates; Coomassie-stained band of about 40-55 kDa analysed by protein mass spectrometry; VEC-overexpressing GES-1 cells as negative control

By UniProt entry, the sequences of proteins in these tests, tags left out.
UniProt P08670: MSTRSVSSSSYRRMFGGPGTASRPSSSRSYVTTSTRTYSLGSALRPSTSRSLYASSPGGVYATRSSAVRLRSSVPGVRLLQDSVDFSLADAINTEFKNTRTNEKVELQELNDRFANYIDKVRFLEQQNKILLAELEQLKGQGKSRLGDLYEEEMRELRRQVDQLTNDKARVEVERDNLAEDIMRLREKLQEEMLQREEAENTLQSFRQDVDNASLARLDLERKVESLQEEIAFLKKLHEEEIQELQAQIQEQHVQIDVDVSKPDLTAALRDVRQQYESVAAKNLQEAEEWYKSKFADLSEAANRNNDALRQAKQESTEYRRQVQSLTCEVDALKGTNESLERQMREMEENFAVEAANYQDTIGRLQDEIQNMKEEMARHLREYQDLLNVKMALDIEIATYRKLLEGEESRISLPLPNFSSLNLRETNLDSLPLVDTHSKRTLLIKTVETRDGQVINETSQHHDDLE

binding: binds
Substance: vimentin (from UniProt P08670 1-466)
